Patent publication US20260215432A1, “ANTIMICROBIAL CONJUGATED OLIGOELECTROLYTES AND METHODS THEREOF” (National University of Singapore, priority 2023, published 2026)
Some results were stated once for a whole list of compounds, not compound by compound. At least one structure is not confirmed: it was looked up by name or label, or the drawing left a doubt.

Test system: SA
Assay: MIC in physiological-mimicking environments (MHB)
Type: cell-based, S. aureus
Details: SA and PA, Table 4 conditions
Source text: The complexities of the physiological environment often influence drug activity, particularly when cations in solution are implicated in their oligomerization-dependent mechanisms of action, such as for daptomycin. Binding of free drug to plasma proteins effectively reduces the available free concentration of the drug capable of killing bacteria, resulting in lower observable activity. We tested MIC values of DM4P and DM6P in the presence of human serum albumin (40 g L^−1) and high salt concentrations (Table 4). Under these conditions, the antimicrobial activity was minimally affected by these environmental factors, with MICs remaining within a 2-fold level.

Compound | change of MIC in presence of human serum albumin and high salt concentrations [fold]
COc1cc(/C=C/c2ccc(OCCCC[P+](c3ccccc3)(c3ccccc3)c3ccccc3)c(OC)c2)ccc1OCCCC[P+](c1ccccc1)(c1ccccc1)c1ccccc1.[I-].[I-] [DM4P] | ≤ 2
COc1cc(/C=C/c2ccc(OCCCCCC[P+](c3ccccc3)(c3ccccc3)c3ccccc3)c(OC)c2)ccc1OCCCCCC[P+](c1ccccc1)(c1ccccc1)c1ccccc1.[I-].[I-] [DM6P] | ≤ 2
